Experimental findings from PubChem BioAssay AID330 (DTP/NCI, 2004) are described below.

The list is a part of this screen's results and no random one: it is rich in T/C values a quarter to a half above the control, in often repeated tests (any T/C) and in doses without a T/C. Further doses and runs are listed elsewhere. T/C: endpoint of the treated group in % of that of the vehicle group. Some entries give survivors of the animals treated and no T/C: the source files T/C as zero there, which appears to mark a toxic dose or a test without result, not a measured value. Some survivor counts are full or nearly so, which does not show that the dose was tolerated: survival well below the control is almost never listed, so the zero probably covers shortened survival too. Survivors were counted at the toxicity check, usually on the fifth day, unless a day is given; later deaths do not show. Schedule codes are those of the source, read here as Q, the interval in days (D) or hours (H), X, the number of doses. Some structures stand for samples that the source files as different forms (salt, stereo form or complex); doses refer to the form tested. For survival time, this PubChem deposit counts one and a half times the control or more as active, and values a quarter to a half above the control carry no call in these data; other NCI protocols may use other cut-offs. Some doses were run more than once; the results are listed from low to high. Some T/C values carry the count of animals alive at the toxicity check (mostly the fifth day); where none is given, no animal had died by that day.

The test has as its system P388 leukemia ip, CD2F1 mice, survival T/C. Kind of test: NCI In Vivo Anticancer Drug Screen. Data for tumor model P388 Leukemia (intraperitoneal) in CD2F1 (CDF1) mice. The following applies: T/C endpoint: median survival time, higher T/C = longer survival.
[1] abbreviates: dose: 1.5 mg/kg/injection, schedule: Q01DX009 (ip), vehicle: saline.
Setting [2] is: dose: 100.0 mg/kg/injection, schedule: Q01DX009 (ip), vehicle: saline with Tween-80.
[3] abbreviates: dose: 50.0 mg/kg/injection, schedule: Q01DX009 (ip), vehicle: saline with Tween-80.
The mark [4] stands for this setting: dose: 200.0 mg/kg/injection, schedule: Q01DX005 (ip), vehicle: saline with Tween-80.
[5] abbreviates: dose: 200.0 mg/kg/injection, schedule: Q01DX009 (ip), vehicle: saline with Tween-80.
The mark [6] stands for this setting: dose: 400.0 mg/kg/injection, schedule: Q01DX009 (ip), vehicle: saline with Tween-80.
The mark [7] stands for this setting: dose: 200.0 mg/kg/injection, schedule: Q01DX009 (ip), vehicle: Klucel (hydroxypropylcellulose) (HPC).

Consider `CC[C@]12CN3CCc4c([nH]c5ccccc45)[C@@](C(=O)OC)(c4cc5c(cc4OC)N(C)[C@H]4[C@@](O)(C(=O)OC)[C@H](OC(C)=O)[C@]6(CC)C=CCN7CC[C@]54[C@@H]76)CC(C3)[C@H]1O2` (some centres undefined), for which the T/C is, setting by setting: under setting [1], 130 % of control; (dose: 3.0 mg/kg/injection, schedule: Q01DX009 (ip), vehicle: saline sonified) 143 % of control; (dose: 3.0 mg/kg/injection, schedule: Q01DX009 (ip), vehicle: saline) 148 % of control; (dose: 12.8 mg/kg/injection, schedule: Q01DX009 (ip), vehicle: saline) 140 % of control. For the same molecule, under setting [1], the survivor count is reported as 5 of 6.

On to `CC1CCCC(C)N1C(=O)OCC12COC3(C)CCC(C)(OC1)N23` (centres undefined), for which, under “dose: 400.0 mg/kg/injection, schedule: Q01DX005 (ip), vehicle: Klucel (hydroxypropylcellulose) (HPC)”, the survivor count is 0 of 6.

Turning to `[N-]=[N+]=NC1=CC(=O)C(c2ccccc2)=CC1=O`, under setting [2], the survivor count is 5 of 6.

In the case of `CC1(C)N=C(N)N=C(N)N1c1ccc(OCCNS(=O)(=O)c2cccc(S(=O)(=O)F)c2)c(Cl)c1`, the T/C is, setting by setting: (dose: 12.5 mg/kg/injection, schedule: Q01DX009 (ip), vehicle: saline with Tween-80) 125 % of control; (dose: 25.0 mg/kg/injection, schedule: Q01DX009 (ip), vehicle: saline with Tween-80) 127 % of control; under setting [3], 143 % of control; (dose: 100.0 mg/kg/injection, schedule: Q01DX009 (ip), vehicle: saline) 130 % of control [5 of 6 alive]. Also, the survivor count runs as follows: (dose: 200.0 mg/kg/injection, schedule: Q01DX009 (ip), vehicle: saline) 1 of 6; (dose: 400.0 mg/kg/injection, schedule: Q01DX009 (ip), vehicle: saline) 0 of 6.

For the molecule `CCCCCCCCCCCCCCCC[N+](C)(C)CCOC(C)=O`, the survivor count reads like this: under setting [3], 3 of 6; (dose: 50.0 mg/kg/injection, schedule: Q01DX009 (ip), vehicle: saline) 3 of 6.

Consider `Cn1c2ccccc2c(=Nc2ccc(S(N)(=O)=O)cc2)c2ccccc21`, for which the survivor count reads like this: (dose: 50.0 mg/kg/injection, schedule: Q01DX005 (ip), vehicle: saline with Tween-80) 6 of 6; under setting [4], 3 of 6.

Take `COc1cccc(/C=C2/SC(=S)N(Cc3ccco3)C2=O)c1OC`: the survivor count was 5 of 5 (dose: 100.0 mg/kg/injection, schedule: Q01DX005 (ip), vehicle: saline with Tween-80) and 5 of 5 under setting [4].

In the case of `CN(N=O)C(=O)N[C@@H](C=O)[C@@H](O)[C@H](O)[C@H](O)CO`, the T/C runs as follows: (dose: 120.0 mg/kg/injection, schedule: Q04DX003 (ip), vehicle: citric acid) 125 % of control; (dose: 120.0 mg/kg/injection, schedule: Q04DX003 (ip), vehicle: other) 137 % of control; (dose: 180.0 mg/kg/injection, schedule: Q04DX003 (ip), vehicle: other) 128 % of control; (dose: 250.0 mg/kg/injection, schedule: Q01DX001 (ip), vehicle: other) 125 and 137 % of control; (dose: 500.0 mg/kg/injection, schedule: Q01DX001 (ip), vehicle: other) 130 % of control.

Take `O=C1c2ccccc2C(=O)c2c1cc1c(O)c(CN3CCCC3)ccc1c2O`: under setting [4], the survivor count was 6 of 6.

As to `Nc1[nH]c(=O)ncc1NC(=O)C(=O)Nc1cnc(=O)[nH]c1N`, the survivor count is, setting by setting: under setting [2], 0 of 6; under setting [5], 1 of 6; under setting [6], 0 of 6.

For `CCCCC(=O)N(c1ccc(Nc2c3ccccc3nc3cc([N+](=O)[O-])ccc23)cc1)S(C)(=O)=O`, the T/C was 130 % of control (dose: 0.18 mg/kg/injection, schedule: Q01DX009 (ip), vehicle: saline with Tween-80); 132 % of control (dose: 0.27 mg/kg/injection, schedule: Q01DX009 (ip), vehicle: saline with Tween-80); 134 % of control (dose: 0.4 mg/kg/injection, schedule: Q01DX009 (ip), vehicle: saline with Tween-80); 138 % of control (dose: 0.6 mg/kg/injection, schedule: Q01DX009 (ip), vehicle: saline with Tween-80); 145 % of control (dose: 1.25 mg/kg/injection, schedule: Q01DX009 (ip), vehicle: saline with Tween-80); 135 % of control (dose: 1.5 mg/kg/injection, schedule: Q04DX003 (ip), vehicle: saline with Tween-80). For the same molecule, the survivor count is on record as 6 of 6 (dose: 18.7 mg/kg/injection, schedule: Q01DX009 (ip), vehicle: saline with Tween-80); 6 of 6 (dose: 37.5 mg/kg/injection, schedule: Q01DX009 (ip), vehicle: saline with Tween-80); 6 of 6 (dose: 75.0 mg/kg/injection, schedule: Q01DX009 (ip), vehicle: saline with Tween-80); 8 of 8 (dose: 83.3 mg/kg/injection, schedule: Q04DX003 (ip), vehicle: water).

As for `N=C(N)c1cn(C2OC(CO)C(O)C2O)c2ncnc(N)c12` (centres undefined), the T/C is 140 % of control (dose: 2.2 mg/kg/injection, schedule: Q04DX003 (ip), vehicle: saline); 140 % of control (dose: 3.3 mg/kg/injection, schedule: Q04DX003 (ip), vehicle: saline); 145 % of control (dose: 5.0 mg/kg/injection, schedule: Q04DX003 (ip), vehicle: saline). The survivor count runs as follows: (dose: 100.0 mg/kg/injection, schedule: Q04DX003 (ip), vehicle: saline) 1 of 6; (dose: 200.0 mg/kg/injection, schedule: Q04DX003 (ip), vehicle: saline) 1 of 6; (dose: 400.0 mg/kg/injection, schedule: Q04DX003 (ip), vehicle: saline) 0 of 6.

With `COc1ccc2c(=O)c(Cc3c[nH]c4ccccc34)coc2c1`, the survivor count reads like this: (dose: 60.0 mg/kg/injection, schedule: Q01DX005 (ip), vehicle: saline with Tween-80) 6 of 6; (dose: 120.0 mg/kg/injection, schedule: Q01DX005 (ip), vehicle: saline with Tween-80) 6 of 6; (dose: 240.0 mg/kg/injection, schedule: Q01DX005 (ip), vehicle: saline with Tween-80) 6 of 6.

Take `Cc1ccc(N/N=c2\c3nc4ccccc4nc2n(-c2ccccc2C)c(=S)n3-c2ccccn2)cc1`: under setting [4], the survivor count is 2 of 6.

For `CCCCC/C(=C/C=C/c1ccc(Cl)cc1)CN(C)C`, the survivor count under setting [7] was 1 of 6.

Take `COC(=O)C(NC(=O)C(CO)N1C(=O)c2ccccc2C1=O)c1ccccc1` (centres undefined): the survivor count under setting [4] was 6 of 6.

As for `CC[N+](C)(CC)CCOC(C)=O`, the survivor count is 2 of 6 (dose: 50.0 mg/kg/injection, schedule: Q01DX001 (ip), vehicle: saline with Tween-80) and 0 of 6 (dose: 100.0 mg/kg/injection, schedule: Q01DX001 (ip), vehicle: saline with Tween-80).

As to `N/C(=C\c1nc2ccccc2nc1-c1ccccc1)c1ccccc1Cl`, the survivor count (dose: 240.0 mg/kg/injection, schedule: Q01DX005 (ip), vehicle: Klucel (hydroxypropylcellulose) (HPC)) was 6 of 6.

Regarding `CCCC(CCC)=NNC(=S)SC`, the survivor count is, setting by setting: under setting [2], 1 of 6; under setting [5], 2 of 6.

Consider `COc1cc(NCCCC2CCCCN2)c2ncccc2c1OC` (centres undefined), for which the survivor count was 2 of 5 (dose: 25.0 mg/kg/injection, schedule: Q01DX005 (ip), vehicle: saline); 0 of 5 (dose: 50.0 mg/kg/injection, schedule: Q01DX005 (ip), vehicle: saline); 0 of 5 (dose: 100.0 mg/kg/injection, schedule: Q01DX005 (ip), vehicle: saline); 0 of 5 (dose: 200.0 mg/kg/injection, schedule: Q01DX005 (ip), vehicle: saline).

Regarding `[O-]c1n[n+](Cc2ccc(Cl)cc2)no1`, under “dose: 400.0 mg/kg/injection, schedule: Q04DX003 (ip), vehicle: Klucel (hydroxypropylcellulose) (HPC)”, the survivor count is reported as 6 of 6.

Take `COc1ccc(C(=O)CC2CCCC(CC(=O)c3ccc(OC)cc3)N2C)cc1` (centres undefined): the survivor count is on record as 0 of 6 under setting [5] and 0 of 6 under setting [6].

For the molecule `c1nc(N2CCOCC2)c2[nH]cnc2n1`, where the note is “dose: 100.0 mg/kg/injection, schedule: Q01DX005 (ip), vehicle: Klucel (hydroxypropylcellulose) (HPC)”, the survivor count was 6 of 6.

Take `Cc1nn(C(=O)c2ccncc2)c(C)c1N=Nc1ccc([N+](=O)[O-])cc1`: the survivor count under setting [7] is 3 of 6.
